Reference: paper PMC4503722, “Novel Phenotypic Outcomes Identified for a Public Collection of Approved Drugs from a Publicly Accessible Panel of Assays” (PLoS ONE, 2015)
pEC50: −log10 of the molar value.

System: nuclear β-catenin in C2C12 cells
Experiment: cells
Format: cell-based
Conditions: Mus musculus, C2C12, read-out: Wnt pot. EC50

CCCNCC(O)COc1ccccc1C(=O)CCc1ccccc1 (stereo not shown) [propafenone, reference compound]
pEC50: < 5.00
